The campaign covered roughly 360,000 compounds. About 7,500 (2.1%) were called active. This list was built around the results that the source calls inconclusive (neither active nor inactive); the mix of calls is not that of the screen. Calls come from the whole dose curve; as a rule, active = well fitted inhibition curve with a large enough effect; inconclusive = small, poorly fitted or top-dose-only effect, or effect the other way; inactive = flat fitted curve, though single readings scatter. Potencies of inconclusive entries are doubtful fits and often do not repeat.
Assay: Nrf2 qHTS screen for inhibitors; note: nearly all actives have a fitted effect of over 60% in size
Conditions: A549 ARE-Fluc reporter, luciferase luminescence, 18-24 h; activity change, negative = inhibition: at 46 µM (top of the series)
Outline: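 Reporter: ARE-Fluc in A549. Exposure: 18-24 h, 37 °C, 5% CO2, 5% FBS OPTI-MEM. Readouts: fluorescent cytotoxicity (CellTiter-Fluor), then luminescent Nrf2 signal after BugLite.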
% is set by controls: 0 for no effect and ±100 for the full control effect; potency is the fitted concentration of half-maximal effect.

Row | Structure (SMILES) | Potency | activity change, negative = inhibition
1 | COc1ccc(-c2ccc(C#N)c(SCC(=O)NCc3ccco3)n2)cc1OC | inactive | 
2 | Cc1[nH]cnc1C(=O)N/N=C/c1c(Cl)cccc1Cl | inconclusive: 13 µM [activator, partial curve, poor fit] | 
3 | COc1ccc(C2C(=O)c3ccccc3C2=O)cc1OC | inconclusive: 14.6 µM [activator, single point] | 
4 | COc1cccc(CNC(=O)c2cc3cc(C)ccc3n2C)c1 | inconclusive: 4.11 µM [activator, full curve, poor fit] | 
5 | O=C1CC(NS(=O)(=O)c2cccnc2)CN1c1ccccc1 (stereo not drawn) | inactive | 
6 | CN(C)/C=N/c1c(C#N)cnn1-c1ccccc1 | inactive | 
7 | Cc1nc(N2CCCCC2)c2ccsc2n1 | inconclusive: 11.6 µM [falling, partial curve, poor fit] | 
8 | Cc1c(C(=O)Nc2ccc3c(c2)OCCO3)sc2ncnc(N3CCCCC3C)c12 (stereo not drawn) | inconclusive: 16.4 µM [falling, single point] | 
9 | Cc1nc(N2CCCCC2)sc1C(=O)c1ccc(SCCO)c([N+](=O)[O-])c1 | active: 20.6 µM | 
10 | CCOc1ccccc1NC(=O)CSc1nnc(CC)c(CC)n1 | inconclusive: 13 µM [activator, partial curve, poor fit] | 
11 | O=C(NC1CC1)c1sc2ccccc2c1Cl | inconclusive: 7.31 µM [activator, partial curve] | 
12 | CCCCC(CC)CNC(=O)c1ccc(Cn2c(=O)[nH]c3cc(OC)c(OC)cc3c2=O)cc1 (stereo not drawn) |  | inactive: -5.63% [at 9.27 µM]
13 | O=C(O)c1ccccc1N/N=C/c1cc(Br)cc(Br)c1O | inconclusive: 13 µM [activator, partial curve] | 
14 | CCN1c2ccccc2-c2nc(SCC(=O)Nc3cc(OC)cc(OC)c3)ncc2S1(=O)=O | inconclusive: 20.6 µM [activator, single point] | 
15 | Cc1ccc(NS(=O)(=O)c2ccc(C3CCCCC3)cc2)cc1 | inconclusive: 29.1 µM [falling, single point] | 
16 | COc1ccc(CCC(C)N2CCC(CO)(Cc3ccccc3)CC2)cc1 (stereo not drawn) | inconclusive: 20.6 µM [activator, single point] | 
17 | Cc1noc(C)c1C(=O)Nc1nc2ccc(Cl)cc2s1 | inactive | 
18 | COc1ccc(-c2nn(C)c3sc(C(=O)Nc4cc(OC)c(OC)c(OC)c4)cc23)cc1OC | active: 23.1 µM | 
19 | CCCN(C(=O)c1c(C)oc2ncn(CC(C)C)c(=O)c12)c1ccccc1C | inactive | 
20 | CCOc1ccccc1OCCC(=O)N1CCN(S(=O)(=O)c2ccccc2[N+](=O)[O-])CC1 | inconclusive: 25.9 µM [activator, single point] | 
21 | O=C(/C=C/c1ccc(Br)o1)Nc1nccs1 | inconclusive: 2.31 µM [activator, partial curve, poor fit] | 
22 | CC(C)(C)NC(=O)CSc1ccc(C(C)(C)C)cc1 | inconclusive: 32.6 µM [falling, single point] | 
23 | O=C(Nc1ccc(Cl)c(S(=O)(=O)N2CCOCC2)c1)c1ccccc1-c1ccc(C(F)(F)F)cc1 | inconclusive: 29.1 µM [falling, single point] | 

In the list so far, these have an aryl thioether with sulfur outside any ring:
Row | Structure (SMILES) | Potency | activity change, negative = inhibition
1 | COc1ccc(-c2ccc(C#N)c(SCC(=O)NCc3ccco3)n2)cc1OC | inactive | 
9 | Cc1nc(N2CCCCC2)sc1C(=O)c1ccc(SCCO)c([N+](=O)[O-])c1 | active: 20.6 µM | 
10 | CCOc1ccccc1NC(=O)CSc1nnc(CC)c(CC)n1 | inconclusive: 13 µM [activator, partial curve, poor fit] | 
14 | CCN1c2ccccc2-c2nc(SCC(=O)Nc3cc(OC)cc(OC)c3)ncc2S1(=O)=O | inconclusive: 20.6 µM [activator, single point] | 
22 | CC(C)(C)NC(=O)CSc1ccc(C(C)(C)C)cc1 | inconclusive: 32.6 µM [falling, single point] | 

Continued.

Row | Structure (SMILES) | Potency | activity change, negative = inhibition
24 | COc1ccc(C(=O)NC(=S)NNC(=O)c2cnccn2)cc1 | inconclusive: 1.84 µM [falling, full curve] | 
25 | COc1cccc(N2CCN(C(=O)c3[nH]c(C)c(C(C)=O)c3C)CC2)c1 | inconclusive: 7.08 µM [falling, full curve, poor fit] | 
26 | CCN(CC)CCN(C(=O)c1cccc(N2C(=O)CCC2=O)c1)c1nc2cc3c(cc2s1)OCO3 | inconclusive: 29.1 µM [activator, single point] | 
27 | NC(=O)c1ccc(N2CCN(c3ccccc3O)CC2)c([N+](=O)[O-])c1 | inactive | 
28 | O=C(COc1ccc(Br)cc1Br)NC(=S)N1CCCc2ccccc21 | inconclusive: 23.1 µM [activator, single point] | 
29 | CCCC(=O)Nc1ccc(S(=O)(=O)N2CCC(c3nc4ccccc4[nH]3)CC2)cc1 | inconclusive: 23.1 µM [falling, partial curve, poor fit] | 
30 | Cc1ccc(CNC(=O)C2CCCN(c3nn4cc(-c5ccc(C)cc5)nc4s3)C2)cc1 (stereo not drawn) | inconclusive: 25.9 µM [falling, single point] | 
31 | O=[N+]([O-])c1cc(Cl)c(O)c2ncccc12 | active: 20.6 µM | 
32 | CC1(C)CC2CC(C)(CN2S(=O)(=O)c2ccc(F)cc2F)C1 (stereo not drawn) | inactive | 
33 | CCOc1cc(C(=S)N2CCOCC2)ccc1OC(=O)c1cccc(C)c1 | inconclusive: 32.6 µM [falling, partial curve, poor fit] | 
34 | Cc1ccc(N2C(=O)N(CC(=O)N3CCOCC3)C(=O)C2C)cc1 (stereo not drawn) | inconclusive: 20.6 µM [activator, single point] | 
35 | Cc1c(NC(=O)C(C)(C)C)cccc1-c1nc2ccccc2s1 | inconclusive: 3.66 µM [activator, single point] | 
36 | C/C(=N\N=c1/sc2ccccc2n1C)c1ccccn1 | inconclusive: 9.2 µM [activator, partial curve] | 
37 | Clc1ccc(SCc2csc(N3CCOCC3)n2)cc1 | inactive | 
38 | COc1ccnc(Oc2ccc(F)cc2)c1C(=O)N/C=N/OCc1c(Cl)cccc1Cl | inconclusive: 16.4 µM [falling, single point] | 
39 | Cn1cc(S(=O)(=O)N2CCc3ccccc32)cc1C(=O)Nc1ccc(C(F)(F)F)cc1 | inconclusive: 23.1 µM [falling, single point] | 
40 | CC#CC[N+](C)(C)CCCCCCCC | inconclusive: 29.1 µM [falling, single point] | 
41 | CCN(CC)c1ccc(NC(=O)Cn2cc3c(n2)CCCC3)c(C)c1 | inconclusive: 29.1 µM [falling, single point] | 
42 | CCc1cccc(NS(=O)(=O)c2ccc3c(c2)NC(=O)C(C)S3)c1 (stereo not drawn) | active: 16.4 µM | 
43 | CCCCN(CC)c1nc(-c2ccncc2)nc2ccccc12 | inactive | 
44 | O=[N+]([O-])c1ccc2nonc2c1Nc1cccc(F)c1 | inconclusive: 10.3 µM [activator, partial curve, poor fit] | 
45 | O=C(c1cc(COc2ccc(F)cc2F)on1)N1CC2C[C@@H]3CC1C[C@H](C2)C3 | inconclusive: 1.64 µM [activator, partial curve] | 
46 | Cc1cccc(-c2nnc(SCCOc3ccc4c(C)cc(=O)oc4c3)o2)c1 | inconclusive: 11.6 µM [falling, partial curve, poor fit] | 

Row | Structure (SMILES) | Potency | activity change, negative = inhibition
47 | Cc1cccc(CNC(=O)c2ccc(Cn3c(SCc4cccc(F)c4)nc4cccnc43)cc2)c1 | inconclusive: 20.6 µM [falling, partial curve, poor fit] | 
48 | COc1ccc2cc(C(=O)N3CCc4ccccc43)[nH]c2c1 | inconclusive: 2.06 µM [activator, full curve] | 
49 | CCCCNC(=O)COC(=O)c1c2c(nc3ccccc13)/C(=C\c1cccs1)CC2 | inconclusive: 16.4 µM [activator, partial curve] | 
50 | COc1cccc(NC(=S)N2CCC(Cc3ccccc3)CC2)c1 | active: 18.4 µM | 
51 | CCCSc1ncc(Cl)c(C(=O)Nc2ccc(S(=O)(=O)N3CCCCC3C)cc2)n1 (stereo not drawn) | inconclusive: 7.31 µM [falling, partial curve] | 
52 | CCCC(O)(CCC)C(=O)NN(C(=O)CCl)c1ccccc1 | inconclusive: 25.9 µM [falling, single point] | 
53 | O=C(Nc1ccc(Cl)c(Cl)c1)c1cccnc1 | inconclusive: 10.3 µM [activator, partial curve] | 
54 | Nc1ccc2c(O)cc(S(=O)(=O)O)cc2c1 | inconclusive: 9.2 µM [falling, partial curve, poor fit] | 
55 | O=C(NC1=NCCS1)c1cc2ccccc2o1 | inconclusive: 0.116 µM [activator, full curve, poor fit] | 
56 | Cc1ccc(C(=O)OCC(=O)Nc2cccc(Cl)c2C)c(O)c1 | inconclusive: 16.4 µM [falling, partial curve, poor fit] | 
57 | COc1ccc(-c2cc(C(F)(F)F)n3ncc(C(=O)N4CCCCC4c4cccnc4)c3n2)cc1 (stereo not drawn) | inconclusive: 11.6 µM [falling, partial curve, poor fit] | 
58 | Cc1cc(OCC(=O)Nc2ccc(CN3CCOCC3)cc2)c2c(C)c(C)c(=O)oc2c1 | inconclusive: 25.9 µM [falling, single point] | 
59 | COc1ccc(C/C(C)=N/NC(=S)Nc2ccccc2)cc1 | inconclusive: 16.4 µM [activator, single point] | 
60 | COC(=O)COc1ccc(S(=O)(=O)NCc2ccncc2)cc1 | inconclusive: 29.1 µM [falling, single point] | 
61 | Cn1cc(C(=O)N2CCc3ccccc32)cn1 | inconclusive: 23.1 µM [activator, single point] | 
62 | COC(=O)Cc1c(C)c2ccc3c(c2oc1=O)CN(Cc1ccc(Cl)cc1)CO3 | inactive | 
63 | O=[N+]([O-])c1ccc(O)c(NC(=S)Nc2ccccc2)c1 | inconclusive: 29.1 µM [activator, single point] | 
64 | O=C(O)C1Nc2ccccc2C2C=CCC12 (stereo not drawn) | inactive | 
65 | c1ccc(CSc2ccc(-c3cccnc3)nn2)nc1 | inconclusive: 18.4 µM [activator, single point] | 
66 | O=C(NC1CCCCCC1)C(=S)N1CCOCC1 | inactive | 
67 | CCOC(=O)C1CCCN(c2cc(=O)n(-c3ccccc3Cl)c(=O)[nH]2)C1 (stereo not drawn) | inconclusive: 29.1 µM [falling, single point] | 
68 | COc1ccc(NC(=O)COc2ccccc2Cc2ccccc2)cc1S(=O)(=O)N1CCOCC1 | inconclusive: 29.1 µM [falling, single point] | 
